According to the M2OR odorant receptor database:
The entries are a selection whose mix differs from that of the whole data set. Calls are pooled over several reports, among them a noisy single-well screen. The list shows a part of the results.

Key:
Settings in all cases: stereoisomer not certain
OR5M11 (Homo sapiens) = target: T1, OR5M11 (Homo sapiens) (UniProt Q96RB7)
T1 sequence (whole entry): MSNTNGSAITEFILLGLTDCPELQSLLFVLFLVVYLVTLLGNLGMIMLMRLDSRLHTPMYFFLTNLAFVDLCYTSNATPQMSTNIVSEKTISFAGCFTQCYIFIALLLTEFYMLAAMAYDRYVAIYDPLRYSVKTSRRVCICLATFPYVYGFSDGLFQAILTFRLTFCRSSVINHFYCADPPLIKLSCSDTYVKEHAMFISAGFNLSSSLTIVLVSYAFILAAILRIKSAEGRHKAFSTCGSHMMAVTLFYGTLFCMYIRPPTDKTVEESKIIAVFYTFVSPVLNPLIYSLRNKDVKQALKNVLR
In short: (§1)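 Values were gathered from published papers (main text and supplementary material), with extra details requested from the original authors when needed, and checked for typos and inconsistencies. Each receptor–molecule pair is called responsive (active) if the original authors judged the measured signal statistically different from baseline, and non-responsive (inactive) otherwise. Assay methods varied by source, often transient mammalian cell-line luciferase assays. Recorded details include cell line, G-protein, co-transfected protein and tags.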

OR5M1 = test system: T2, OR5M1
T2 sequence (whole entry): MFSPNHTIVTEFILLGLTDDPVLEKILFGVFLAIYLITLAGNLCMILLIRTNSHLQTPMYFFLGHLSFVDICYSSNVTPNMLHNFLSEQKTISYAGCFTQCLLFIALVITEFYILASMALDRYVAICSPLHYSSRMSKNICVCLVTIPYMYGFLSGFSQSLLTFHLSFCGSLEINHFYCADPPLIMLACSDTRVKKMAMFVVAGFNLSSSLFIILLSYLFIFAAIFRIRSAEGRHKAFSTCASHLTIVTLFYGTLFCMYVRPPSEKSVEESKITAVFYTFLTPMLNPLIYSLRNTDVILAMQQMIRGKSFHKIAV
In short: as §1

OR5M3 (Homo sapiens) = target: T3, OR5M3 (Homo sapiens) (UniProt Q8NGP4)
T3 sequence (whole entry): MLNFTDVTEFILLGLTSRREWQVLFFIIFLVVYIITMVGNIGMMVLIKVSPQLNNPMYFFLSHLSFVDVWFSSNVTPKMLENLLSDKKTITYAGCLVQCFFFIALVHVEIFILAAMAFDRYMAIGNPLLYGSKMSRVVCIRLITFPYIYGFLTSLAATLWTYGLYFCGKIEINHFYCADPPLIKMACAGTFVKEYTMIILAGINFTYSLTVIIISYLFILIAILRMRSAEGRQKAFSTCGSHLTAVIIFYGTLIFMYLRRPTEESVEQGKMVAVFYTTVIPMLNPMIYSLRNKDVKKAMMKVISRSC
In short: as §1

OR5M8 (Homo sapiens) = target: T4, OR5M8 (Homo sapiens) (UniProt Q8NGP6)
T4 sequence (whole entry): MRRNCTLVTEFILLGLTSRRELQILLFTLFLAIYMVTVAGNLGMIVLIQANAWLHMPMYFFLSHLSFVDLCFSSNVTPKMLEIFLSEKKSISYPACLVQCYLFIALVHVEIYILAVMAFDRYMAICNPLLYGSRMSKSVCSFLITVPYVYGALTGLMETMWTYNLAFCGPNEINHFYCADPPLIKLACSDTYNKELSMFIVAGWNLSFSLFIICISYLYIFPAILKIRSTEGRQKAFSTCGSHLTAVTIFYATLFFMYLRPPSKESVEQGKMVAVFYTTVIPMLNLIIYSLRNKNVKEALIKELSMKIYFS
In short: as §1

OR5M9 (Homo sapiens) = target: T5, OR5M9 (Homo sapiens) (UniProt Q8NGP3)
T5 sequence (whole entry): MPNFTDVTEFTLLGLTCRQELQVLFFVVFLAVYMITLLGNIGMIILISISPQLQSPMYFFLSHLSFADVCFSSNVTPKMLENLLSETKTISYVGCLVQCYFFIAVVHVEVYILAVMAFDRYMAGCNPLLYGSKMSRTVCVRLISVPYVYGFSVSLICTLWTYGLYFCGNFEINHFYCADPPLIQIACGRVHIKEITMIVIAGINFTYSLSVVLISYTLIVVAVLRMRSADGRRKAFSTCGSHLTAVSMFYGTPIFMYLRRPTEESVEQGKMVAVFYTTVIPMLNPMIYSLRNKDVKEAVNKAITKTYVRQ
In short: as §1

OR5MA = test system: T6, OR5MA
T6 sequence (whole entry): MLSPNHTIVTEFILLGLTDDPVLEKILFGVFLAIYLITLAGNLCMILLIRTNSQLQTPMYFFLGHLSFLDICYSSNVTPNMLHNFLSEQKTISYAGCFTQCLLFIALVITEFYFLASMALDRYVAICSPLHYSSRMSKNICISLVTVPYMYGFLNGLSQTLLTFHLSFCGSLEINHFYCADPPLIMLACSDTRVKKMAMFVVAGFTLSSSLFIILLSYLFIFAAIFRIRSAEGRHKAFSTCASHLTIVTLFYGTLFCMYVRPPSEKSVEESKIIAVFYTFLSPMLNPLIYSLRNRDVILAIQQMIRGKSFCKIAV
In short: as §1

OR5P2 (Homo sapiens) = target: T7, OR5P2 (Homo sapiens) (UniProt Q8WZ92)
T7 sequence (whole entry): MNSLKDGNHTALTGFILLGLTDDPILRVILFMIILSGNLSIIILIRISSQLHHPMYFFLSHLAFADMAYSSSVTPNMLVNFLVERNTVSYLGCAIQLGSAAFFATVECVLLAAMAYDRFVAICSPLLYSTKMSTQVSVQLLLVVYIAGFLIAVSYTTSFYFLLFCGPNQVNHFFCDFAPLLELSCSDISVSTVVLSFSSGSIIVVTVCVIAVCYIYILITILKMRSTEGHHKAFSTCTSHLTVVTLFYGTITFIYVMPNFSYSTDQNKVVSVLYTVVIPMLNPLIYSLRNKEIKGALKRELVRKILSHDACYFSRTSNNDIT
In short: as §1

OR5P3 (Homo sapiens) = target: T8, OR5P3 (Homo sapiens) (UniProt Q8WZ94)
T8 sequence (whole entry): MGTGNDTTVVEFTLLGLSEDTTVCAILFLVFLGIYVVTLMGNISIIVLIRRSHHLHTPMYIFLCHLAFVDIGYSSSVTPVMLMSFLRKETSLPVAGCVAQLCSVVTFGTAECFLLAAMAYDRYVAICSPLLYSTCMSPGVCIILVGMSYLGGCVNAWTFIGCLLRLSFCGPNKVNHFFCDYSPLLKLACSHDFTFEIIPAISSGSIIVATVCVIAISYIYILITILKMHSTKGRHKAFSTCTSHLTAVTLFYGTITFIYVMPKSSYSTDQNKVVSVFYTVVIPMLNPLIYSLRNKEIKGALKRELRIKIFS
In short: as §1

OR5R1 = test system: T9, OR5R1
T9 sequence (whole entry): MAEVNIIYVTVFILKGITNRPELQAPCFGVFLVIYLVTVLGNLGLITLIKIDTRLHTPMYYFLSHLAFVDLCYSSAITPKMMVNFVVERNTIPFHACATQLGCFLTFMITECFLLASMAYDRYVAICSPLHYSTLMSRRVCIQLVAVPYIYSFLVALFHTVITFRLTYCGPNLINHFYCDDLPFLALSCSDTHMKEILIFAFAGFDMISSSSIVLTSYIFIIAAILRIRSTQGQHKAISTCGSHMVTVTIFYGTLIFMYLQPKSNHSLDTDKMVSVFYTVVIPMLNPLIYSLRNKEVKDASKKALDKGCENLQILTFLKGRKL
In short: as §1

OR5T1 (Homo sapiens) = target: T10, OR5T1 (Homo sapiens) (UniProt Q8NG75)
T10 sequence (whole entry): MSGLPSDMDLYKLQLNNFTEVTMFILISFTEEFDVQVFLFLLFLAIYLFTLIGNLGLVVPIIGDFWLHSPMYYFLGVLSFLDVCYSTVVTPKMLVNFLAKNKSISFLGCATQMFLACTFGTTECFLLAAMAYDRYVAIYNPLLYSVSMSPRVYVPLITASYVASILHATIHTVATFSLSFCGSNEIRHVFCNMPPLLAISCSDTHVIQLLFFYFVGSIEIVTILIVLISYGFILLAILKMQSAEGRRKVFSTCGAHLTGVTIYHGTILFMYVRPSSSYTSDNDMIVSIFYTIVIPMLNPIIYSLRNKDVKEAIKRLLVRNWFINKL
In short: as §1

OR5T1 = test system: T11, OR5T1
T11 sequence (whole entry): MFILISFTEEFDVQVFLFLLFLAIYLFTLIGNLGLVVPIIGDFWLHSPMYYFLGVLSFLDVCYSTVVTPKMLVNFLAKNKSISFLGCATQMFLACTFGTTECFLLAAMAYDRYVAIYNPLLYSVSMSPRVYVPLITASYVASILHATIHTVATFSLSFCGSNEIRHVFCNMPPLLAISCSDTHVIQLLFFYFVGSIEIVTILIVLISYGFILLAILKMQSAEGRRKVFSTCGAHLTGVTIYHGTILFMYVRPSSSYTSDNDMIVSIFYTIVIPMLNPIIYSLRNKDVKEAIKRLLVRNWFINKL
In short: as §1

OR5T2 [1] = test system: T12, OR5T2
T12 sequence (whole entry): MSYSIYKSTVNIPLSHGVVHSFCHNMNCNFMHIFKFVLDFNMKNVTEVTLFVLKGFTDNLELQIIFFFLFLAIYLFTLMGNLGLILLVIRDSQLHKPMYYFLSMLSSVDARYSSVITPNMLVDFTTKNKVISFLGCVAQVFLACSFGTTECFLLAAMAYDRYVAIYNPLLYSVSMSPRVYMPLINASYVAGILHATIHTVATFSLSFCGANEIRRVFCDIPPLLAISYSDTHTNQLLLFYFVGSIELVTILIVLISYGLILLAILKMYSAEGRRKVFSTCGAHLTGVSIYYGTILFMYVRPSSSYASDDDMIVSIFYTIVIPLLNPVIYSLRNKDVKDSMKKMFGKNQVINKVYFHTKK
In short: as §1

OR5T2 [2] = test system: T13, OR5T2; remark: listed apart in the source
T13 sequence (whole entry): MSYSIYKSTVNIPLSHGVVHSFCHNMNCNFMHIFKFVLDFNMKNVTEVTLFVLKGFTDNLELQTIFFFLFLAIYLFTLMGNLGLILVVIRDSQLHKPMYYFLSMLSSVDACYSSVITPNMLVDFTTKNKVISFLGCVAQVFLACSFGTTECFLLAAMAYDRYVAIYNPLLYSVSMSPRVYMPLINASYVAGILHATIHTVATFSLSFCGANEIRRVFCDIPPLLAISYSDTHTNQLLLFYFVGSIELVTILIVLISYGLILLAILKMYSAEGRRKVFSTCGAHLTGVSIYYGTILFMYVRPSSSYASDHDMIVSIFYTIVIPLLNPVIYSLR
In short: as §1

OR5T3 = test system: T14, OR5T3
T14 sequence (whole entry): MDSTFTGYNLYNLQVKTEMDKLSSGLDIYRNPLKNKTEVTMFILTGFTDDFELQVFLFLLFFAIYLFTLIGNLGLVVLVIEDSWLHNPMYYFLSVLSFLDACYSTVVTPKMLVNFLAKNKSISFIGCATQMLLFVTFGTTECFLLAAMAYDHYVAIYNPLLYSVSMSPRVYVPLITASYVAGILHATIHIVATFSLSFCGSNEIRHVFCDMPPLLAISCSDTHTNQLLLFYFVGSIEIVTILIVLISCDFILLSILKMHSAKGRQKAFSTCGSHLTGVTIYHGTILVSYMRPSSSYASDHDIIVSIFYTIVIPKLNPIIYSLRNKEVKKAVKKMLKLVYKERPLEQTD
In short: as §1

OR5V1 (Homo sapiens) = target: T15, OR5V1 (Homo sapiens) (UniProt Q9UGF6)
T15 sequence (whole entry): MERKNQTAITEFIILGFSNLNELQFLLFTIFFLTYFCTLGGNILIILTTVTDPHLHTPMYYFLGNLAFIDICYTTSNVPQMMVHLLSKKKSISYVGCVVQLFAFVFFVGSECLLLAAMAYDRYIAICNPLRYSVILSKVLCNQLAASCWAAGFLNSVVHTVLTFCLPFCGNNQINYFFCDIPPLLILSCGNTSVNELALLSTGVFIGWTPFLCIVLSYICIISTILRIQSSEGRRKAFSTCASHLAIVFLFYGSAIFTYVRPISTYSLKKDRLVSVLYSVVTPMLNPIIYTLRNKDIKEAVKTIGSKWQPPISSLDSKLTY
In short: as §1

OR5W2 = test system: T16, OR5W2
T16 sequence (whole entry): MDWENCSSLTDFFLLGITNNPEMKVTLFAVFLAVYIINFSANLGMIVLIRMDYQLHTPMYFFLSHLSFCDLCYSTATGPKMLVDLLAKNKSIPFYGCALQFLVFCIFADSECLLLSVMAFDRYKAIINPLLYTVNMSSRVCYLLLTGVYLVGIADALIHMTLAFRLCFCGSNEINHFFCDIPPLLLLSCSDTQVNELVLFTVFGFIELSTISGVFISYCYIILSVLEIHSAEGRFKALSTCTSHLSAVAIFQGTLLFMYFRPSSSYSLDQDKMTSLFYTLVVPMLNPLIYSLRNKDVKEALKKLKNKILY
In short: as §1

OR6A2 (Homo sapiens) = target: T17, OR6A2 (Homo sapiens) (UniProt O95222)
T17 sequence (whole entry): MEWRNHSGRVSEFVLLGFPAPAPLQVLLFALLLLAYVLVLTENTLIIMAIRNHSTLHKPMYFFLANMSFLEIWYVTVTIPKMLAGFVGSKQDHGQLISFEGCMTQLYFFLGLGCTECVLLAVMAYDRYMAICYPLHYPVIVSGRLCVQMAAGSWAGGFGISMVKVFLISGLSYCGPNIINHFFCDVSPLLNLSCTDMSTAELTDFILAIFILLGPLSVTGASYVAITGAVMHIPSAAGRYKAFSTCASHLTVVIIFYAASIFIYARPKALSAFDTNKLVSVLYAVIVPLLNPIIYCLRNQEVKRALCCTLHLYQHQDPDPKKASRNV
In short: as §1

SMILES	odorant receptor agonist call (OR5M11 (Homo sapiens))	odorant receptor agonist call (OR5M1)	odorant receptor agonist call (OR5M3 (Homo sapiens))	odorant receptor agonist call (OR5M8 (Homo sapiens))	odorant receptor agonist call (OR5M9 (Homo sapiens))	odorant receptor agonist call (OR5MA)	odorant receptor agonist call (OR5P2 (Homo sapiens))	odorant receptor agonist call (OR5P3 (Homo sapiens))	odorant receptor agonist call (OR5R1)	odorant receptor agonist call (OR5T1 (Homo sapiens))	odorant receptor agonist call (OR5T1)	odorant receptor agonist call (OR5T2 [1])	odorant receptor agonist call (OR5T2 [2])	odorant receptor agonist call (OR5T3)	odorant receptor agonist call (OR5V1 (Homo sapiens))	odorant receptor agonist call (OR5W2)	odorant receptor agonist call (OR6A2 (Homo sapiens))
C=CCc1ccc(OC)c(OC)c1	inactive	inactive	inactive	inactive	inactive	active	inactive	active	inactive	inactive	inactive	inactive	inactive	inactive	inactive	inactive	inactive
C=CCc1ccc(OC(C)=O)c(OC)c1	active	inactive		inactive	inactive	inactive	active	inactive	inactive	inactive	inactive	inactive	inactive	inactive	inactive	inactive	inactive
CCCCCCOC(=O)CCC	inactive	inactive		inactive	inactive	inactive	inactive	inactive	inactive	inactive	inactive	inactive	inactive	inactive	inactive	inactive	inactive
CCCCCCC=O								inactive									
CCCCCCCCC=O			inactive					inactive									
CCCCCOC(C)=O	inactive	inactive		inactive	inactive	inactive	inactive	inactive	inactive	inactive	inactive	inactive	inactive	inactive	inactive	inactive	inactive
